Among the data in article PMC5348399 are binding values, retold here.

The chains behind the UniProt entries cited, without tags or fusion partners.
UniProt Q9UNE7: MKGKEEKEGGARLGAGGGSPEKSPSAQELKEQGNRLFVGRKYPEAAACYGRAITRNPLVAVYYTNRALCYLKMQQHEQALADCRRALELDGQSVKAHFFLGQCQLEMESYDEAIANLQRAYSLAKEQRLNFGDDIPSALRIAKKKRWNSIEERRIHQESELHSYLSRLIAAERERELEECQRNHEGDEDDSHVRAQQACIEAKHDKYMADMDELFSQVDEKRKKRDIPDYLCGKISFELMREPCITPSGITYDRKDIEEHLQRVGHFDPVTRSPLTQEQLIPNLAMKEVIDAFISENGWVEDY
UniProt P10275: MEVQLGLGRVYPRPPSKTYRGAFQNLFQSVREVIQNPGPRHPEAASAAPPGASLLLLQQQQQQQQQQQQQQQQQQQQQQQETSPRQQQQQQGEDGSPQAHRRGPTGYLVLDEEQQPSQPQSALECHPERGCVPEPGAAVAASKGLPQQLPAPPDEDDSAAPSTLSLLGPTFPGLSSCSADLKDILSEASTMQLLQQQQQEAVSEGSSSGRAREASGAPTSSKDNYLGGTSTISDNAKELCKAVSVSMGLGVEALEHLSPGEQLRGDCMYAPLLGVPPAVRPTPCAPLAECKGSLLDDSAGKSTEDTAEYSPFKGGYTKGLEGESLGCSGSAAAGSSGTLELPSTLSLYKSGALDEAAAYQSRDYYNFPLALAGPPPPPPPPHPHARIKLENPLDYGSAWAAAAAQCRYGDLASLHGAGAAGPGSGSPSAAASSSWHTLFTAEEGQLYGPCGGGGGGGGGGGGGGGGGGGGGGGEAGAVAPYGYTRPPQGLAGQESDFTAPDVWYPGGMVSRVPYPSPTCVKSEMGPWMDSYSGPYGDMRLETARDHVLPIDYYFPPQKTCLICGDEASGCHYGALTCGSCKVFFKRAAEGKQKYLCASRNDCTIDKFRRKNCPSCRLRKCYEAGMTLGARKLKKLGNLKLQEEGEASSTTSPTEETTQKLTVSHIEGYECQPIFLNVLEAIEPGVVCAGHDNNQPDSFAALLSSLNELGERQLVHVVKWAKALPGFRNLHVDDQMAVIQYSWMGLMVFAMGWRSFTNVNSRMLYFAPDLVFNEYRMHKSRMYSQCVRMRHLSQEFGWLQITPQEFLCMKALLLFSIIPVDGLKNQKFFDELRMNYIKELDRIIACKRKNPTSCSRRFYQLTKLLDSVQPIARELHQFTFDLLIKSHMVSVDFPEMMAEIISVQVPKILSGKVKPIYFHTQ

Test [1] addresses T1, Flag-PC-1 (human) (UniProt P55327).
T1 sequence: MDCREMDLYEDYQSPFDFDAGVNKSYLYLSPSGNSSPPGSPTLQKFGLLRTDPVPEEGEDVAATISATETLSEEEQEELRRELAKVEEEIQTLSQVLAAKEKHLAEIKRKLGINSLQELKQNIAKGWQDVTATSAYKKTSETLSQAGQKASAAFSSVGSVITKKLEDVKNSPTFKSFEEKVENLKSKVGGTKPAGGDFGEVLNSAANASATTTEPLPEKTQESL
Nature of the test: co-IP; HEK293 cells transiently transfected, lysed 48 h later in RIPA buffer; precipitated with anti-FLAG-M2 agarose beads, Western blot; AR with CHIP tested with and without co-expressed HA-PC-1.

In test [2] the target is Flag-CHIP (UniProt Q9UNE7). The description is as above.
Test [3] addresses GST-CHIP (UniProt Q9UNE7). Briefly: pull-down; GST-PC-1 or GST-CHIP on glutathione beads incubated with lysates of transfected HEK293 cells at 4°C for 4-6 h, Western blot; AR with GST-CHIP tested with and without co-expressed HA-PC-1; only the target purified.
Test [4] has as its target T2, GST-PC-1 (human) (UniProt P55327).
T2 sequence: T1 sequence
The test is described as above.

Test [5] concerns the target endogenous AR (human (endogenous in LNCaP)) (UniProt P10275). Briefly: co-IP; endogenous proteins; LNCaP and PC-1 overexpressing LNCaP-PC-1 lysates with 2 μg AR antibody and protein A/G-Sepharose at 4°C overnight, blot with anti-CHIP.
Test [6] has as its target Flag-CHIP (UniProt Q9UNE7). Nature of the test: co-IP; HEK293 cells transiently transfected, lysed 48 h later in RIPA buffer; precipitated with anti-FLAG-M2 agarose beads, Western blot; AR with CHIP tested with and without co-expressed HA-PC-1. This is another data set of the same source. (A western blot detects proteins with antibodies after separation by electrophoresis.)

For test [7], the target named is GST-CHIP (UniProt Q9UNE7). Briefly: pull-down; GST-PC-1 or GST-CHIP on glutathione beads incubated with lysates of transfected HEK293 cells at 4°C for 4-6 h, Western blot; AR with GST-CHIP tested with and without co-expressed HA-PC-1; only the target purified. This is another data set of the same source.

Like-named read-outs stand apart in the source and are kept apart here. No constants are given. Whether binding was seen depends on the method and setting. In cells and extracts the contact can be indirect. Some results given as binding are weak or reduced against the parent protein; the word gives no strength. For some assays here: Where a sequence is shown, tags or fusion partners need not be part of it.

As for “Myc-CHIP (from UniProt Q9UNE7 1-303) (enzyme)”, the binding entry in test [1] is “binds”.

Regarding “Myc-AR (from UniProt P10275 1-920) (receptor)”, the binding result in test [2], in test [1], in test [3] and in test [4] was “binds” in each case.

As for “endogenous CHIP (from UniProt Q9UNE7 1-303) (enzyme)”, the binding result in test [5] was “binds”.

B1: HA-PC-1 (protein, UniProt P55327 1-224)
chain: T1 sequence
B1: the binding entry in test [6] and in test [7] was “binds” throughout.
